PubChem BioAssay AID1224830 – NIAID – 2016

- Aim: 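Host factors that control LPS-induced TNF expression in human macrophages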 (primary screen)
- Cell system: human THP-1 monocytic leukaemia cells, TNF dual-luciferase reporter clone, PMA-differentiated to macrophage-like cells
- Reagents: siRNA pool against human genes, 50 nM
- Duration: LPS for 4 h, given about 3 days after siRNA transfection
- Challenge: bacterial LPS (TLR4 ligand), 10 ng/ml
- Measured: 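TNF firefly reporter luminescence divided by renilla, normalised to the plate median, then turned into a robust z-score for each replicate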
- Direction: TNF reporter robust z-score: higher = stronger TNF reporter response to LPS
- Call rule: 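a well is active when its z-score exceeds 2.8 or falls below -1.5; control wells carry no call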
This is a random part of about 18,000 deposited reagents. In the full data, about 2,900 (16%) were called active. 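Calls are made per well; low scores hint the gene aids the LPS response, high scores that it dampens it.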 Entries without a mark were called inactive. Repeated entries: four replicate wells of each siRNA pool. No sequences are given here.

TAF1A: TNF reporter robust z-score = 2.19
TAF1A: TNF reporter robust z-score = 3.01 (active)
TAF1A: TNF reporter robust z-score = 1.67
TAF1A: TNF reporter robust z-score = 2.09
MCL1: TNF reporter robust z-score = -1.28
MCL1: TNF reporter robust z-score = 0.9
MCL1: TNF reporter robust z-score = -0.84
MCL1: TNF reporter robust z-score = -0.03
ARFGEF1: TNF reporter robust z-score = -0.71
ARFGEF1: TNF reporter robust z-score = 3.13 (active)
ARFGEF1: TNF reporter robust z-score = 0.17
ARFGEF1: TNF reporter robust z-score = 0.66
GNG8: TNF reporter robust z-score = -0.58
GNG8: TNF reporter robust z-score = -1.01
GNG8: TNF reporter robust z-score = -0.3
GNG8: TNF reporter robust z-score = -0.66
PLEKHA3: TNF reporter robust z-score = -0.91
PLEKHA3: TNF reporter robust z-score = -0.18
PLEKHA3: TNF reporter robust z-score = -0.59
PLEKHA3: TNF reporter robust z-score = -1.08
TTC27: TNF reporter robust z-score = 0
TTC27: TNF reporter robust z-score = -0.22
TTC27: TNF reporter robust z-score = 0.62
TTC27: TNF reporter robust z-score = 1.15
SFXN2: TNF reporter robust z-score = -1.06
SFXN2: TNF reporter robust z-score = 0.05
SFXN2: TNF reporter robust z-score = -0.13
SFXN2: TNF reporter robust z-score = 0.1
HDAC4: TNF reporter robust z-score = 0.97
HDAC4: TNF reporter robust z-score = -0.44
HDAC4: TNF reporter robust z-score = -0.87
HDAC4: TNF reporter robust z-score = -1.05
TNFRSF14: TNF reporter robust z-score = -0.34
TNFRSF14: TNF reporter robust z-score = -0.37
TNFRSF14: TNF reporter robust z-score = -0.36
TNFRSF14: TNF reporter robust z-score = 0.08
IL15: TNF reporter robust z-score = -0.91
IL15: TNF reporter robust z-score = -0.38
IL15: TNF reporter robust z-score = 0.27
IL15: TNF reporter robust z-score = 1.2
GALNT4: TNF reporter robust z-score = 0.65
GALNT4: TNF reporter robust z-score = 1.61
GALNT4: TNF reporter robust z-score = 1.63
GALNT4: TNF reporter robust z-score = 2.02
MARVELD3: TNF reporter robust z-score = 1.05
MARVELD3: TNF reporter robust z-score = -0.58
MARVELD3: TNF reporter robust z-score = -0.07
MARVELD3: TNF reporter robust z-score = 0.04

8 consecutive entries already listed, for reference:
IL15: TNF reporter robust z-score = -0.91
IL15: TNF reporter robust z-score = -0.38
IL15: TNF reporter robust z-score = 0.27
IL15: TNF reporter robust z-score = 1.2
GALNT4: TNF reporter robust z-score = 0.65
GALNT4: TNF reporter robust z-score = 1.61
GALNT4: TNF reporter robust z-score = 1.63
GALNT4: TNF reporter robust z-score = 2.02
